Results deposited as PubChem BioAssay AID1259287 (Sanger Institute, 2017).

- Aim: 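Confirm knock-downs acting together with BYL719, cetuximab or trametinib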 (follow-up of hits)
- Cell system: human HCT15 colorectal cancer cells
- Reagent: single siRNA against human genes
- Conditions: BYL719 1 µM, cetuximab 5 µg/ml or trametinib 10 nM, or DMSO vehicle
- Read-out: 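Cell survival relative to non-targeting pool 2 wells, averaged across replicates, with a synergy score for each drug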
- Scale: synergy score with BYL719 and synergy score with cetuximab and synergy score with trametinib: higher = stronger combined killing than expected; viability with DMSO vehicle only: higher = more cells survive the knock-down
- Call rule: 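a hit if BYL719, cetuximab or trametinib yields synergy greater than 0.10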
- Calls: active = synergy with at least one drug; inactive = no synergy with any drug
Shown is a random part of 160 reagents tested. In the full data, 19 (12%) were called active. 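Viability seems capped at 1; calls apply to HCT15 cells only, not to validation across other lines.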 Unmarked entries are inactive. Reagents against one gene are numbered here. Not given: the amount of reagent, the time to read-out.

Target gene	reagent no.	synergy score with BYL719	synergy score with cetuximab	synergy score with trametinib	viability with DMSO vehicle only (fraction of control)
NLK	1	-0.0949	-0.0977	0.0397	0.944
NLK	2	-0.0169	-0.175	0.0266	0.619
NLK	3	-0.254	-0.169	-0.177	0.87
NLK	4	-0.159	-0.0743	0.0251	0.969
MAPKAPK2	1	0.0128	-0.00162	-0.0804	0.844
MAPKAPK2	2	-0.102	0.0189	-0.0664	0.898
MAPKAPK2	3	0.000567	-0.0685	-0.0365	0.912
MAPKAPK2	4	-0.202	-0.145	-0.152	0.888
PRAG1	1	0.241 (active)	-0.0984	-0.0188	0.802
PRAG1	2	0.224 (active)	-0.0347	-0.101	0.782
PRAG1	3	-0.179	-0.0385	-0.231	0.743
PRAG1	4	-0.107	-0.116	-0.138	0.743
GRK5	1	-0.165	-0.0255	-0.127	1
GRK5	2	-0.111	-0.0844	-0.163	0.958
GRK5	3	-0.0569	-0.0159	-0.086	1
GRK5	4	-0.0865	-0.0814	-0.109	0.961
PFKFB3	1	-0.0543	-0.0222	-0.0384	0.639
PFKFB3	2	-0.00456	-0.132	-0.0383	0.558
PFKFB3	3	-0.0811	-0.107	-0.208	0.871
PFKFB3	4	0.018	-0.179	0.0428	0.859
MPP3	1	-0.0105	0.0138	0.042	0.928
MPP3	2	-0.0555	-0.113	-0.0385	0.788
MPP3	3	0.087	-0.0337	-0.0434	0.903
MPP3	4	-0.0609	-0.0345	0.0848	0.754
ACVR1	1	-0.12	-0.0601	-0.141	0.984
ACVR1	2	0.0222	0.0614	-0.136	0.975
ACVR1	3	-0.0469	-0.0444	-0.0617	1
ACVR1	4	-0.166	0.0019	-0.0723	0.985
PLK1	1	-0.0336	0.00101	0.00447	0.203
PLK1	2	-0.0863	-0.0378	-0.056	0.194
PLK1	3	-0.0133	-0.0687	0.0192	0.176
PLK1	4	-0.0745	-0.139	-0.0627	0.0611
CAMK2N1	1	-0.113	-0.187	-0.15	0.835
CAMK2N1	2	0.184 (active)	-0.0934	-0.265	0.804
CAMK2N1	3	-0.111	-0.113	-0.0131	0.638
CAMK2N1	4	-0.0737	0.0501	0.0375	0.497
COASY	1	-0.117	-0.0835	-0.0435	0.666
COASY	2	-0.0534	-0.126	0.0498	0.628
COASY	3	-0.0606	-0.00479	-0.0327	0.503
COASY	4	-0.0476	-0.0753	-0.00844	0.567
SYK	1	-0.051	-0.183	0.0466	0.423
SYK	2	-0.0133	0.0602	0.0957	0.806
SYK	3	0.0232	-0.183	0.0103	0.69
SYK	4	-0.0183	-0.0444	-0.0386	1
